This test addresses E74-Like Factor 1 (ELF-1), endogenous (human (endogenous in HeLa S3)) (UniProt P32519). Kind of test: co-IP; HeLa S3 cells mock or IFN-β treated for 5 h; co-immunoprecipitation with ELF-1 or RB1 antibodies or normal mouse serum; Western blot. In general terms: A western blot detects proteins with antibodies after separation by electrophoresis.

Amino acid sequences for entries named in this document (tags omitted).
UniProt P32519: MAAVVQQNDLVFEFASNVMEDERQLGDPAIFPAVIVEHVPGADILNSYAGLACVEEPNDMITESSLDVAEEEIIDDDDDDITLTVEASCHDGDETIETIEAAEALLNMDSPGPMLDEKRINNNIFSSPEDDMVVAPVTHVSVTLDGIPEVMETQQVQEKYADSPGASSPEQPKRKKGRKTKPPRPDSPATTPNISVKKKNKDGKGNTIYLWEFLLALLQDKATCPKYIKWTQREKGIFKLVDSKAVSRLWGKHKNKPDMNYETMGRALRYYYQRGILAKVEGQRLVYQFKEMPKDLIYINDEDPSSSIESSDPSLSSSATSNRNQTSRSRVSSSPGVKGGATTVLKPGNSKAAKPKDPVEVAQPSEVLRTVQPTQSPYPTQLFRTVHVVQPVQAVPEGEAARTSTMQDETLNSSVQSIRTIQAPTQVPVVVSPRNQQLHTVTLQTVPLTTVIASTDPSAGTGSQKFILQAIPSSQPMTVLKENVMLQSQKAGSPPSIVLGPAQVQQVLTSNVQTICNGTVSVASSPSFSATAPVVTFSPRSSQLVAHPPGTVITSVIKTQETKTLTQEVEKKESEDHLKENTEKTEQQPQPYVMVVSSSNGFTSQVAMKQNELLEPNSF

Results are given in words; binding and its absence hold for the method and conditions named. Binding seen in cells or lysates may run through a third protein. Some binding calls cover weakened binding; strength is not graded here.

B1: RB1, endogenous (protein, UniProt P06400 1-928)
chain: MPPKTPRKTAATAAAAAAEPPAPPPPPPPEEDPEQDSGPEDLPLVRLEFEETEEPDFTALCQKLKIPDHVRERAWLTWEKVSSVDGVLGGYIQKKKELWGICIFIAAVDLDEMSFTFTELQKNIEISVHKFFNLLKEIDTSTKVDNAMSRLLKKYDVLFALFSKLERTCELIYLTQPSSSISTEINSALVLKVSWITFLLAKGEVLQMEDDLVISFQLMLCVLDYFIKLSPPMLLKEPYKTAVIPINGSPRTPRRGQNRSARIAKQLENDTRIIEVLCKEHECNIDEVKNVYFKNFIPFMNSLGLVTSNGLPEVENLSKRYEEIYLKNKDLDARLFLDHDKTLQTDSIDSFETQRTPRKSNLDEEVNVIPPHTPVRTVMNTIQQLMMILNSASDQPSENLISYFNNCTVNPKESILKRVKDIGYIFKEKFAKAVGQGCVEIGSQRYKLGVRLYYRVMESMLKSEEERLSIQNFSKLLNDNIFHMSLLACALEVVMATYSRSTSQNLDSGTDLSFPWILNVLNLKAFDFYKVIESFIKAEGNLTREMIKHLERCEHRIMESLAWLSDSPLFDLIKQSKDREGPTDHLESACPLNLPLQNNHTAADMYLSPVRSPKKKGSTTRVNSTANAETQATSAFQTQKPLKSTSLSLFYKKVYRLAYLRLNTLCERLLSEHPELEHIIWTLFQHTLQNEYELMRDRHLDQIMMCSMYGICKVKNIDLKFKIIVTAYKDLPHAVQETFKRVLIKEEEYDSIIVFYNSVFMQRLKTNILQYASTRPPTLSPIPHIPRSPYKFPSSPLRIPGGNIYISPLKSPYKISEGLPTPTKMTPRSRILVSIGESFGTSEKFQKINQMVCNSDRVLKRSAEGSNPPKPLKKLRFDIEGSDEADGSKHLPGESKFQQKLAEMTSTRTRMQKQKMNDSMDTSNKEEK
Turning to B1, the binding entry is recorded as “binds”.
